Measurements published in PMC4515122.
These are yes or no findings as the source states them, for the method shown.

Sequences of proteins named here, by UniProt entry; tags and fusion partners are left off.
UniProt O43715: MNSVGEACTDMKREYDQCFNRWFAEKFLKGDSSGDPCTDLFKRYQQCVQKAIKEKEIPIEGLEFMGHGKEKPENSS

Molecular target: Full-length TRIAP1 (residues 1-76), His6 vector (human) (UniProt O43715)
Experiment: SEC + other: NMR line widths; free TRIAP1 in solution; gel filtration profiles and NMR line widths; both purified

binding: no binding
Substance: Full-length TRIAP1 (residues 1-76), His6 vector (from UniProt O43715 1-76)
